Results reported in paper PMC6255327 (Molecules, 2009).

test: general procedure: solution-phase peptide synthesis; DCC/HOSu; (Boc)Phe 2,4,5-trichlorophenyl ester; conditions: coupling step, hydrochloride

Which step yield does the source give for “N,N',N,N’-tetrakis(Boc-L-phenylalanyl-3-aminopropyl)-L-α,δ-diaminobutanol” here?
Its step yield is 71%.

Which step yield does the source give for “N,N',N,N’-tetrakis(Boc-L-phenylalanyl-3-aminopropyl)-L-α,δ-diaminopentanol” here?
Its step yield is 54%.

Which step yield does the source give for “N,N',N,N’-tetrakis(Boc-L-phenylalanyl-3-aminopropyl)-L-α,δ-diaminopropanol” here?
The step yield was 66%.

For “N,N',N,N’-tetrakis(Boc-L-phenylalanyl-3-aminopropyl)-L-α,ε-diaminohexanol”, which step yield is on record?
The step yield was 73.5%.
